Amino acid sequences for entries named in this document (tags omitted).
UniProt Q15149: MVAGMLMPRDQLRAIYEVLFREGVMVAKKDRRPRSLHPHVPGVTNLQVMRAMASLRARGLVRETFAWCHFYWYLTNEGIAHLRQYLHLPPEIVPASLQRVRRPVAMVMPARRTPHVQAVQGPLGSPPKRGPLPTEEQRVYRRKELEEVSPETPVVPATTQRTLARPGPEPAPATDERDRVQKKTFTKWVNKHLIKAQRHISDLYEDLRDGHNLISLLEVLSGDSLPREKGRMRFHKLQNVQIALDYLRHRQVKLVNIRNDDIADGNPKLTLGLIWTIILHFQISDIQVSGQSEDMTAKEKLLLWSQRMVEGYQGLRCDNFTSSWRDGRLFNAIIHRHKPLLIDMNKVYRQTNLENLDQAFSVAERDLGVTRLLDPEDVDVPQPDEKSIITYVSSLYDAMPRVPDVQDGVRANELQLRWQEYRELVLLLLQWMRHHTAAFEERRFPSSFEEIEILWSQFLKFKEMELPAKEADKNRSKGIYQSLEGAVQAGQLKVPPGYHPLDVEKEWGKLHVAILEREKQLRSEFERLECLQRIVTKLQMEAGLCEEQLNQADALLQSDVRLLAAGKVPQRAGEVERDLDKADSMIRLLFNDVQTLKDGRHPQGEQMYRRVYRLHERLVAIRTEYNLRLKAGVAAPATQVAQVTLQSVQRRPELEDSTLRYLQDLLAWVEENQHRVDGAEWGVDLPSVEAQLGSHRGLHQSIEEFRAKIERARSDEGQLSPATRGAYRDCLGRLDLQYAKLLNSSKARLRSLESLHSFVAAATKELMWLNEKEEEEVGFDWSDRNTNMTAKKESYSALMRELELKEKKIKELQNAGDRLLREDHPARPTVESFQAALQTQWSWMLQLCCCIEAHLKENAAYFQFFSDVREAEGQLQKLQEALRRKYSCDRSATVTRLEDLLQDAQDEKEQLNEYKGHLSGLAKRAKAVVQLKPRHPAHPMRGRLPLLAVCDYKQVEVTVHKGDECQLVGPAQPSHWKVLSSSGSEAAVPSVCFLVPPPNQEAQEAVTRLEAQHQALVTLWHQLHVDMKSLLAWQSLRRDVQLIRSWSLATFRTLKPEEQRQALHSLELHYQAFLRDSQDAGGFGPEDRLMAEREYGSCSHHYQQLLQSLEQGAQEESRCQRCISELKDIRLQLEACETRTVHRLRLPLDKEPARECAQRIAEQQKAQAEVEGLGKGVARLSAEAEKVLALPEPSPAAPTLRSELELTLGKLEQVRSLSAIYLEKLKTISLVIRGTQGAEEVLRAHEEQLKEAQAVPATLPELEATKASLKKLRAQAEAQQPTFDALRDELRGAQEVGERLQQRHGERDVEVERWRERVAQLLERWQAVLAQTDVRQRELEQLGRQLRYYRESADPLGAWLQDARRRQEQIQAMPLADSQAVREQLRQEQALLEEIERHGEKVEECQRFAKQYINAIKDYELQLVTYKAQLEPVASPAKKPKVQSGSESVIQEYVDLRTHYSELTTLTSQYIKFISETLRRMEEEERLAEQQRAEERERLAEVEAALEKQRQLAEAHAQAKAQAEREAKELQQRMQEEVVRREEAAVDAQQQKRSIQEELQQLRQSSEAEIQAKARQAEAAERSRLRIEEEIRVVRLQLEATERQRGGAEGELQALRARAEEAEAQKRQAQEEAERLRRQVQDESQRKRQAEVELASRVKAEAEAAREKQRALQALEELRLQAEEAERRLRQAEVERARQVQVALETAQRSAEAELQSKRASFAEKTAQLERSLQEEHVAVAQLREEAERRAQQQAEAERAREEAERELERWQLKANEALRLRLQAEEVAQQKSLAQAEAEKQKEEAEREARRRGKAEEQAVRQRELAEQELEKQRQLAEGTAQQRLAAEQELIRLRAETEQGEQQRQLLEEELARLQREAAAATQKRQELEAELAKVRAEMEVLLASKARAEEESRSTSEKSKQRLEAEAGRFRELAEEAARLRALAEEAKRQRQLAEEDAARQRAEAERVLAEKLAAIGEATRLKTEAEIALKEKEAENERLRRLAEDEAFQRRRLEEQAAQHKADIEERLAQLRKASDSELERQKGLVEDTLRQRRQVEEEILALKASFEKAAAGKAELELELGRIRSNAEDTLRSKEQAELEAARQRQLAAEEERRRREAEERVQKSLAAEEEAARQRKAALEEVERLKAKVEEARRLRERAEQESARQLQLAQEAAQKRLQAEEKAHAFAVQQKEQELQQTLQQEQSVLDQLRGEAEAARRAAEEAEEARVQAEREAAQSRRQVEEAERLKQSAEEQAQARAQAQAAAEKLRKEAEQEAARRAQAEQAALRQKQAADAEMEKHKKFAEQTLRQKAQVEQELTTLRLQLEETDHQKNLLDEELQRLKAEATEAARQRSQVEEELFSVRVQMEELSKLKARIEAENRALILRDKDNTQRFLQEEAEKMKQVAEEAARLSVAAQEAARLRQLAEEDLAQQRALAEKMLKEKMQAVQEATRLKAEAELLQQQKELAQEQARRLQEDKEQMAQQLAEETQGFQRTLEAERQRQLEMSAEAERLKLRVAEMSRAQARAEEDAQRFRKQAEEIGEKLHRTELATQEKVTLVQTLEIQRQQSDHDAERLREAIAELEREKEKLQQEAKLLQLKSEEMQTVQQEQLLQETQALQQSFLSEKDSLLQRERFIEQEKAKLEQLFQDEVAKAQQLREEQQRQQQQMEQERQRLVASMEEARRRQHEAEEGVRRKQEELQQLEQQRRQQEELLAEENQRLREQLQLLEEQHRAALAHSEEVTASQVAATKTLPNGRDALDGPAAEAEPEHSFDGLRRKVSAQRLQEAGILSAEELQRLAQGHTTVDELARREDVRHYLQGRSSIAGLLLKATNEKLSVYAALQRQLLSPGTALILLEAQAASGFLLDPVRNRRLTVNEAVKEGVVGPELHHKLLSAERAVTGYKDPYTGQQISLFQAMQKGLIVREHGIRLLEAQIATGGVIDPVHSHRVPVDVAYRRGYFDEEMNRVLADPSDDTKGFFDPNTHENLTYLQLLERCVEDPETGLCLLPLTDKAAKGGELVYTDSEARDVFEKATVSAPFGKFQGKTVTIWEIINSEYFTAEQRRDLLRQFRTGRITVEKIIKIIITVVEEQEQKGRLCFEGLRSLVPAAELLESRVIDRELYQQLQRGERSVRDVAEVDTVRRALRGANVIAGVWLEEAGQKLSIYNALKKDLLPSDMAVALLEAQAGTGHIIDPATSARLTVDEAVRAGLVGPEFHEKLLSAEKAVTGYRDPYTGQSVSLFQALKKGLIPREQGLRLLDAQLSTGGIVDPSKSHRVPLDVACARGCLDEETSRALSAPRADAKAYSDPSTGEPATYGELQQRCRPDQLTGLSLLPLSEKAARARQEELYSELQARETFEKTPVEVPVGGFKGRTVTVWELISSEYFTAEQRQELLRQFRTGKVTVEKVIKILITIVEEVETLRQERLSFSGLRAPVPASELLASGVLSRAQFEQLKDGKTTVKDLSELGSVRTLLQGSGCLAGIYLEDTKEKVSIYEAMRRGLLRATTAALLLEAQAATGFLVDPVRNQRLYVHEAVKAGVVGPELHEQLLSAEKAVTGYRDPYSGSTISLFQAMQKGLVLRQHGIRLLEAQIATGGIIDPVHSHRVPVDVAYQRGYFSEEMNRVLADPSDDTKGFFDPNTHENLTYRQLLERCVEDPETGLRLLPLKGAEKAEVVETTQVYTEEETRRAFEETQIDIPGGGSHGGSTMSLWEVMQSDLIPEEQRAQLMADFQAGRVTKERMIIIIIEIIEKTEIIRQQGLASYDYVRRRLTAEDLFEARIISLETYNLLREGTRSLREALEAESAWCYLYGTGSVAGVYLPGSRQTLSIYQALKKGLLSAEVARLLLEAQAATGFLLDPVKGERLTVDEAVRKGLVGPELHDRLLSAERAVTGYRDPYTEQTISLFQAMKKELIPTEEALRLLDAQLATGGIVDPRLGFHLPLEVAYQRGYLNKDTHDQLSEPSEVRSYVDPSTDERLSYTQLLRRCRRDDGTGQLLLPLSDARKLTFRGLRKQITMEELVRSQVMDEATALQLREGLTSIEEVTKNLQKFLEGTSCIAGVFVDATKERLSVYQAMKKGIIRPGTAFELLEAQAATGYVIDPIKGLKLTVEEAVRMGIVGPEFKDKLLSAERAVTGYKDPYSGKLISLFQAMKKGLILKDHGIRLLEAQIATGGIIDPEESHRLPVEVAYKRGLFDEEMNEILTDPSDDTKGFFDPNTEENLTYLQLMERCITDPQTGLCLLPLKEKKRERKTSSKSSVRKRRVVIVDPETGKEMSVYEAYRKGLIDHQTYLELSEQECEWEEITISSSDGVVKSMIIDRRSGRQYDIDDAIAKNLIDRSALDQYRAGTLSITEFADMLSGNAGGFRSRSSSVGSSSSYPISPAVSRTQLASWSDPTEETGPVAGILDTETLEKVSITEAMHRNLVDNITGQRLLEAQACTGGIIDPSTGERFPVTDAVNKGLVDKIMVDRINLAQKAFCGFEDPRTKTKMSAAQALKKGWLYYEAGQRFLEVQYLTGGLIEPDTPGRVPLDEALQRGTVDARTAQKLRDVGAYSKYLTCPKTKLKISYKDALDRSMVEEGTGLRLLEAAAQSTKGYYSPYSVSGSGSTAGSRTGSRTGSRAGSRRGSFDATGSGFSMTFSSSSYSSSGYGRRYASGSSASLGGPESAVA

According to publication PMC10309527:

Molecular target: T1, F-box and leucine-rich repeat protein 18 (FBXL18), 3xFlag-tagged (human) (UniProt Q96ME1)
T1 sequence: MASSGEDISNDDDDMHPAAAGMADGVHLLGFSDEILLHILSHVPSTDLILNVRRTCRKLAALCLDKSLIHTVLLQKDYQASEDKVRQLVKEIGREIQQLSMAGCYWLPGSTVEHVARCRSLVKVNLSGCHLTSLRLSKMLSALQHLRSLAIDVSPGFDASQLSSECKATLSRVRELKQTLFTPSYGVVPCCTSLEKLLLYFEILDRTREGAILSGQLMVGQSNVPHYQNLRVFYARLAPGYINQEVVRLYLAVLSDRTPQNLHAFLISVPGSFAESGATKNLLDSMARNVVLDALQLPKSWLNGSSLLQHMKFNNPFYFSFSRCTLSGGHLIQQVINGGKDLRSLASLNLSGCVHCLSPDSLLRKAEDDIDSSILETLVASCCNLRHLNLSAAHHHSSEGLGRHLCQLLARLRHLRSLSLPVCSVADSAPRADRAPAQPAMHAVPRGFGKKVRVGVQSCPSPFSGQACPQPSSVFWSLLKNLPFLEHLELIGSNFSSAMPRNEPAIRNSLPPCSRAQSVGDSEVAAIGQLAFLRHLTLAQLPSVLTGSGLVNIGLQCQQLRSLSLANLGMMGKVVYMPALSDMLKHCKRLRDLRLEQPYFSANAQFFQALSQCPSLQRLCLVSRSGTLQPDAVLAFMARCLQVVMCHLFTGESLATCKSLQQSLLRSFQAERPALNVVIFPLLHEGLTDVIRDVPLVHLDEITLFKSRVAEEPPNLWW
Experiment: affinity purification with mass spectrometry; Huh7 cells transfected with Flag-tagged FBXL18; immunoprecipitation with an anti-FBXL18 antibody (p-0026: anti-Flag-FBXL18 antibody); proteins analyzed by mass spectrometry

For PLEC (from UniProt Q15149 1-4684), the binding was “binds”.

Results are given in words; binding and its absence hold for the method and conditions named. Binding seen in cells or lysates may run through a third protein. A yes stands for co-enrichment or nearness to the bait. Other partners may have been found. Sequences can lack the tags named with a protein.
